At least one compound was matched to its structure with a doubt left.
Legend:
[1] = system: adult Drosophila melanogaster; experiment: Time to anoxic coma onset (locomotion failure) during acute hypoxia after volatilized drug treatment; format: in vivo; conditions: adult sitter flies; single agent volatilized from 10 uL DMSO for 1 hr; 1 mM KT5823, 1 mM Cantharidin, 200 mM DCA, 10 mM 8-Bromo cGMP, 10 mM T-0156; argon displacement; Dunn's p<0.05
Protocol: Using both genetics and pharmacology, the roles and order of function of additional cGMP-dependent signaling molecules in modulating acute low-oxygen sensitivity of locomotory failure were examined. To do this, we imposed acute hypoxia (<0.2% O2 within 5 min) by displacing environmental oxygen with the inert gas argon and then measured time to failure of locomotion (anoxic coma), which can be observed in less than 2% atmospheric oxygen (Haddad, 2000). We also used a novel but reliable method of pharmacological volatilization as a means to manipulate, in vivo, the activity of target enzymes and molecules such as PKG. Flies were frozen immediately after each trial, and heads were dissected and examined for PKG activity, as an indicator for activity levels in the brain (Belay et al., 2007; Kaun et al., 2007b). […]
The experiment required exposing the test vials with 10 flies in a vial within the container to pure argon gas expelled from the tank at a flow rate of 600 cc/min±5%. Time of behavioral failure was recorded by observing the fly undergo a seizure, which was quickly followed by an anoxic coma. […] The program recorded these times of failure for each individual fly within the vials and then computed an average failure time for each vial (each vial has 10 flies but gives an average value for N=1). […]

PKG = PKG enzyme activity assay on heads of treated flies; format: biochemical, Drosophila melanogaster; conditions: heads of animals from FIG. 4a experiments; N=6 for each treatment; SNK
Protocol: PKG enzyme activity assays were conducted according to the procedure outlined in Kaun et al. (2007)(Kaun et al., 2007b). Adult Drosophila were decapitated and the heads were homogenized in 25 mM 1-1 Tris (pH 7.4), 1 mM 1-1 EDTA, 2 mM 1-1 EGTA, 5 mM 1-1 β-mercaptoethanol, 0.05% Triton X-100 and protease inhibitor solution (Roche Diagnostics). Following microcentrifugation for 5 min, the supernatant was removed and those supernatants containing equal amounts of total protein were examined for PKG enzyme activity. The reaction mixture contained the following substances: 40 mM 1-1 Tris-HCl (pH 7.4), 20 mM 1-1 magnesium acetate, 0.2 mM 1-1 [γ^32P]ATP (500-1000 c.p.m. pmol-1), 113 mg ml-1 heptapeptide (RKRSRAE), 3 mM 1-1 cGMP and a highly specific inhibitor of cAMP-dependent protein kinase. The next step of the procedure involved incubating the reaction mixtures at a temperature of 30° C. for 10 min, followed by ending the reaction by spotting 70 μl of the reaction mixture onto Whatman P-81 filters. To remove any unreacted [γ^32P]ATP, these spots were then soaked with 75 mM 1-1 H3PO4 for 5 min and washed three times with 75 mM 1-1 H3PO4. Before quantifying enzyme activity, filters were rinsed with 100% ethanol and air dried. To calculate PKG enzyme activity, counts were taken in a Wallac 1409 Liquid Scintillation Counter using universal scintillation cocktail (ICN). […]

SMILES: O=C(O)C(Cl)Cl [DCA, Dichloroacetate]
- anoxic coma onset sensitivity (time to failure) vs sham control [1]: significant sensitivity to anoxic coma
- PKG enzyme activity levels in heads compared to sham control (PKG): no significant effects on PKG enzyme activity levels
